Results reported in PubChem BioAssay AID504834 (National Center for Advancing Translational Sciences (NCATS), 2011).
About 22,000 (6.9%) of roughly 320,000 compounds were called active. Inconclusive means that the source gave no clear call. Such entries were picked first, then a sample of the others. The call rests on the fitted dose curve; in most records, active means well fitted inhibition curve with a large enough effect; inconclusive means small, poorly fitted or top-dose-only effect, or another doubt; inactive means no such curve, though single readings can be large or run the other way. A potency beside an inconclusive call is a rough fit, not a confirmed value.

test: Primary qHTS for delayed death inhibitors of the malarial parasite plastid, 96 hour incubation; conditions: P. falciparum luciferase reporter growth; series mostly up to 28.7 µM; activity change, negative = inhibition: at the top concentration
Method in brief: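 Delayed-death screen, second-generation endpoint: infected erythrocytes, 2% hematocrit, 0.05% parasitemia final; 96 hours at 37 C, 5% CO2; luciferase detection reagent; luminescence decrease equals reduced growth.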
On the % scale 0 is the no-effect control and ±100 the full control effect; potency means the concentration at half of the fitted maximal effect.

SMILES	activity change, negative = inhibition	Potency
C=C(C)CNC(=S)Nc1cccc(N)n1	inactive: 8.53%	–
Cc1nc(C(=O)N2CCC(n3nccc3NC(=O)Nc3ccccc3Cl)CC2)cs1	inactive: 1.89%	–
Cc1ccc(/C=N/NC(=O)c2ccccc2OCc2cccc(Br)c2)o1	–	inconclusive: 7.38 µM [inhibitor, partial curve, poor fit]
Cc1cc(C)nc(SCc2cc(=O)c(OC(=O)c3ccc(Cl)c([N+](=O)[O-])c3)co2)n1	–	inconclusive: 9.28 µM [inhibitor, partial curve, poor fit]
O=C(COC(=O)/C=C/c1ccc(Cl)cc1)NCCC1=CCCCC1	–	inconclusive: 2.33 µM [inhibitor, single point]
O=S(=O)(c1ccccc1)N1CC1c1ccccc1 (stereo not drawn)	inactive: 11.3%	–
CCc1nc(SCC(=O)N2c3ccccc3Sc3ccccc32)c2ccccc2n1	–	inconclusive: 13.1 µM [inhibitor, partial curve, poor fit]
CCS(=O)(=O)N1Cc2ccccc2CC1C(=O)Nc1nnc(SCc2c(Cl)cccc2Cl)s1 (stereo not drawn)	–	inconclusive: 4.65 µM [inhibitor, partial curve]
O=C(CSc1nccc(=O)[nH]1)Nc1ccc(Oc2ccccc2)cc1	–	inconclusive: 18.5 µM [inhibitor, single point]
O=P(c1ccccc1)(c1ccccc1)C(O)c1ccc(Br)cc1 (stereo not drawn)	–	inconclusive: 14.7 µM [inhibitor, single point]
Cc1ccc(C#N)c(SCc2ccccc2[N+](=O)[O-])n1	inactive: 9.33%	–
Cc1cccc(NC(=O)c2nc[nH]c2C(=O)NCC(=O)OC(C)(C)C)c1	inactive: -2.36%	–
COc1ccccc1NCC(=O)Nc1cc(S(=O)(=O)N2CCOCC2)ccc1N1CCOCC1	–	inconclusive: 5.22 µM [inhibitor, partial curve]
COc1ccc(/C=C(\C#N)C(=O)OCC(=O)Nc2ccc(C(C)(C)C)cc2)cc1	inactive: 24.9%	–
C/C(=N/OC(=O)c1ccc(F)cc1)c1ccc(C)cc1	inactive: 39.3%	–
CCn1c(O)c(N=NC2=NC(=O)CS2)c2ccccc21	–	inconclusive: 8.28 µM [inhibitor, partial curve]
C=CCN(CC=C)Cc1nc(N)nc(Nc2ccccc2C)n1	–	active: 9.28 µM
O=C(NCc1cccnc1)c1ccc(NC(=O)c2ccco2)cc1	inactive: -13.4%	–
CC(C)c1ccccc1NC(=O)CNCCOc1ccccc1F	inactive: -14.1%	–
COC(=O)C1C(=O)c2c([nH]c(C(=O)OC3CCCC3C)c2C)CC1C (stereo not drawn)	inactive: 19.4%	–
COC(=O)[C@@]1(Cc2ccc(F)cc2)[C@H]2c3cc(C(=O)N(C)C)n(Cc4c(CO)[nH]cc(C)c4=O)c3C[C@H]2CN1C(=O)c1ccccc1	–	active: 1.85 µM
Cc1c(Br)c([N+](=O)[O-])nn1CC(=O)Nc1ccc(C(N)=O)cc1	inactive: 25.9%	–
CC1Oc2ccccc2C=C1/C=N/NC(=O)c1ccccc1O (stereo not drawn)	–	inconclusive: 13.1 µM [inhibitor, single point]
CCN(CC(=O)NCc1cccs1)C(=O)COc1ccc(C(C)=O)cc1	inactive: 39.2%	–
COc1cc(C)ccc1OCc1cc(C(=O)NCCN2CCOCC2)no1	inactive: -13.3%	–
CCOC(=O)N1CCN(C(=O)c2ccc(CS(=O)(=O)c3c(Cl)cccc3Cl)o2)CC1	inactive: 4.9%	–

Compounds above that have a cyano group (2):
SMILES	activity change, negative = inhibition	Potency
Cc1ccc(C#N)c(SCc2ccccc2[N+](=O)[O-])n1	inactive: 9.33%	–
COc1ccc(/C=C(\C#N)C(=O)OCC(=O)Nc2ccc(C(C)(C)C)cc2)cc1	inactive: 24.9%	–

Later entries.

SMILES	activity change, negative = inhibition	Potency
CCOCCCNCC(=O)Nc1ccccc1N1CCOCC1	–	inconclusive: 13.1 µM [inhibitor, partial curve, poor fit]
C=CCn1c(SCC(=O)Nc2ccc(-c3nc4ccc(C)cc4s3)cc2)nnc1-c1ccncc1	–	inconclusive: 13.1 µM [inhibitor, single point]
CCNC(=O)NC(=O)CSc1nc2ccccc2n1CCOC	–	inconclusive: 0.0185 µM [inhibitor, full curve, poor fit]
COC(=O)c1cc(NC2c3ccccc3C(=O)N2CCN2CCOCC2)cc(C(=O)OC)c1 (stereo not drawn)	–	inconclusive: 16.5 µM [inhibitor, single point]
CCOc1ccc(NC(=O)CCN2CCN(S(=O)(=O)c3cc(Cl)ccc3OC)CC2)cc1	–	active: 2.62 µM
C=CCn1c(C(O)c2ccccc2)nc2ccccc21 (stereo not drawn)	inactive: -23.3%	–
COCCCNc1nc(N)c([N+](=O)[O-])c(NC2CCCCC2)n1	–	inconclusive: 5.22 µM [inhibitor, partial curve]
COc1ccc(OCC(=O)Nc2ccncc2)cc1	inactive: -15.1%	–
CC(C)COc1ccc(C(=O)Nc2ccc(NC(=O)c3ccco3)c(Cl)c2)cc1	inactive: 394%	–
CC(=O)c1cn(CC(=O)Nc2ccccc2Cl)c2ccccc12	inactive: 148%	–
O=C(NC1CCCC1)c1ncn[nH]1	inactive: 6.07%	–
Cc1cccc(NC(=O)c2ccc([N+](=O)[O-])o2)c1	–	inconclusive: 10.4 µM [inhibitor, single point]
O=C(NCCn1ccc2ccccc21)c1ccc(S(=O)(=O)N2CCCCC2)cc1	–	inconclusive: 10.4 µM [inhibitor, single point]
COc1ccccc1C(=O)N1CCc2ccccc21	inactive: -17.2%	–
NC(=O)c1cc(S(=O)(=O)Nc2ccc(OC(F)(F)F)cc2)cs1	–	inconclusive: 14.7 µM [inhibitor, partial curve, poor fit]
COc1ccc(S(=O)(=O)N2CCC(c3nc4ccccc4[nH]3)CC2)cc1	inactive: 42.8%	–
Cc1ccc(C(=O)Nc2ccc3c(c2)CCC3)cc1	–	inconclusive: 18.5 µM [inhibitor, single point]
CCS(=O)(=O)Nc1ccc(NC(C)=O)cc1	inactive: 15.6%	–
CCSc1nnc2ccc(-c3ccco3)nn12	inactive: -32.7%	–
Cn1cc(/C=N\O)nc2c(=O)n(-c3ccccc3)c(=O)nc1-2	–	inconclusive: 10.4 µM [inhibitor, single point]
CC12CCC(=O)N1C(C(=O)Nc1nc(-c3ccccc3Cl)cs1)CS2 (stereo not drawn)	–	inconclusive: 18.5 µM [inhibitor, single point]
COc1ccc(CNC(=O)Cn2nc(C)n3cccc3c2=O)cc1	inactive: -23.7%	–
Cc1cc(C)c(OCC(=O)NCC2CCCO2)c(C)c1 (stereo not drawn)	–	inconclusive: 8.28 µM [inhibitor, single point]
COc1ccc(N/C(C)=C2/C(=O)C(=O)N(CCO)C2c2ccc(Br)cc2)cc1 (stereo not drawn)	–	inconclusive: 11.7 µM [inhibitor, single point]
COc1ccccc1NC(=O)Nc1nnc(Cc2ccc(F)cc2)s1	–	inconclusive: 16.5 µM [inhibitor, single point]
Cc1ccc(C(C)(C)C)c(OCCOCCN2CCCC2)c1	–	inconclusive: 18.5 µM [inhibitor, single point]

SMILES	activity change, negative = inhibition	Potency
Cc1nnc(SCc2ccccc2)n1CC1CCCO1 (stereo not drawn)	–	inconclusive: 3.29 µM [inhibitor, full curve, poor fit]
O=C1CC(Sc2nnnn2-c2ccccc2)C(=O)N1c1cccc(Cl)c1 (stereo not drawn)	–	inconclusive: 10.4 µM [inhibitor, partial curve, poor fit]
CN(CC(=O)Nc1ccc(F)cc1)C(=O)COC(=O)c1cc([N+](=O)[O-])ccc1N1CCOCC1	inactive: 13%	–
CCN(Cc1ccccc1)C(=O)Cc1c[nH]c2ccccc12	–	inconclusive: 13.1 µM [inhibitor, single point]
COc1ccc(/C=C/c2nnc(NC(=O)CSc3ccc(Cl)cc3)s2)cc1	inactive: -10.1%	–
CCOC(=O)N1CCC(NC(=O)CCC(=O)N2CCOc3ccccc32)CC1	–	inconclusive: 0.0029 µM [inhibitor, full curve, poor fit]
O=C(CSc1n[nH]c(=O)[nH]c1=O)Nc1ccc(Br)cc1Br	inactive: -20.7%	–
CC(=O)Oc1ccc(-c2csnn2)cc1	inactive: 15.7%	–
COc1cccc(CC2(CO)CCCN(Cc3ccc(OC)c(C)c3OC)C2)c1 (stereo not drawn)	–	inconclusive: 18.5 µM [inhibitor, single point]
Cc1cc(C)cc(N(CCC(=O)O)S(=O)(=O)c2ccc3ccccc3c2)c1	–	inconclusive: 18.5 µM [inhibitor, single point]
COC(=O)CC1C(=O)NCCN1C(=O)CSc1nc2ccccc2s1 (stereo not drawn)	inactive: -22.3%	–
N#Cc1c(NC(=O)C2CC=CCC2C(=O)O)sc2c1CCCCCC2 (stereo not drawn)	inactive: -41.6%	–
CCc1ccc(CNc2ccc3c(c2)ncn3CC)cc1	inactive: -20.5%	–
O=C(O)Cc1sc(Nc2cccc3ccccc23)nc1-c1ccccc1	–	inconclusive: 9.28 µM [inhibitor, single point]
O=c1[nH]c2cccnc2n(CCNc2ncc(C(F)(F)F)cc2Cl)c1=O	–	inconclusive: 6.57 µM [inhibitor, partial curve]
COc1ccc(C(=O)Nc2ccccc2N2CCCCC2)cc1[N+](=O)[O-]	–	active: 11.7 µM
CC(=O)c1c(C)[nH]c(C(=O)OCCOc2ccccc2)c1C	inactive: 374%	–
c1ccc(-c2nnc(-c3ccco3)o2)cc1	inactive: 127%	–
C=CCn1c(SCc2ccc(C(=O)Nc3nccs3)cc2)nnc1-c1ccc(C)c(Cl)c1	inactive: 115%	–
O=C(NC1CCCCC1)c1n[nH]c2c1CCCCC2	inactive: 47%	–
O=C(c1ccccc1)c1ccc(OCC(O)CN2CCCC2)cc1 (stereo not drawn)	inactive: -1.41%	–
Cc1cc(/C=C2\C(=O)NC(=O)N(c3ccc(Cl)cc3)C2=O)c(C)n1-c1sc2c(c1C#N)CCCC2	–	inconclusive: 18.5 µM [inhibitor, single point]
Cc1ccc(CSC2=CS(=O)(=O)c3ccccc3N2)cc1	–	inconclusive: 0.465 µM [inhibitor, full curve, poor fit]
CCCCCCCC/C=C\CCCCCCCC(=O)NCCc1ccc(O)c(O)c1	–	inconclusive: 18.5 µM [inhibitor, single point]
COC(=O)CCC(=O)Nc1ccc(Br)cc1	–	inconclusive: 11.7 µM [inhibitor, single point]
CCn1c(=O)c2sccc2n2c(CCCC(=O)NCCc3ccc(S(N)(=O)=O)cc3)nnc12	–	inconclusive: 10.4 µM [inhibitor, single point]

A draw from above in order of SMILES length, ascending.
SMILES	activity change, negative = inhibition	Potency
Cc1ccc(C(C)(C)C)c(OCCOCCN2CCCC2)c1	–	inconclusive: 18.5 µM [inhibitor, single point]
Cn1cc(/C=N\O)nc2c(=O)n(-c3ccccc3)c(=O)nc1-2	–	inconclusive: 10.4 µM [inhibitor, single point]
C=CCn1c(SCC(=O)Nc2ccc(-c3nc4ccc(C)cc4s3)cc2)nnc1-c1ccncc1	–	inconclusive: 13.1 µM [inhibitor, single point]
